Data as given in PubChem BioAssay (EPA / NIEHS).
This list was built around the results that the source calls inconclusive (neither active nor inactive); the mix of calls is not that of the screen. For part of these data: Where the call is inconclusive, the potency comes from a doubtful curve fit. Calls of active or inactive are those of the source. How the source made its calls: active means hit-call score of the fitted dose curve at least 0.9, where 1 is the maximum; inconclusive means response in the unintended direction; inactive means score below 0.9.

Chains of the proteins cited; added tags and fusions are not shown. Lines headed by an entry give the natural chain unless they say otherwise; changes in a name come on top.
UniProt Q9UNQ0: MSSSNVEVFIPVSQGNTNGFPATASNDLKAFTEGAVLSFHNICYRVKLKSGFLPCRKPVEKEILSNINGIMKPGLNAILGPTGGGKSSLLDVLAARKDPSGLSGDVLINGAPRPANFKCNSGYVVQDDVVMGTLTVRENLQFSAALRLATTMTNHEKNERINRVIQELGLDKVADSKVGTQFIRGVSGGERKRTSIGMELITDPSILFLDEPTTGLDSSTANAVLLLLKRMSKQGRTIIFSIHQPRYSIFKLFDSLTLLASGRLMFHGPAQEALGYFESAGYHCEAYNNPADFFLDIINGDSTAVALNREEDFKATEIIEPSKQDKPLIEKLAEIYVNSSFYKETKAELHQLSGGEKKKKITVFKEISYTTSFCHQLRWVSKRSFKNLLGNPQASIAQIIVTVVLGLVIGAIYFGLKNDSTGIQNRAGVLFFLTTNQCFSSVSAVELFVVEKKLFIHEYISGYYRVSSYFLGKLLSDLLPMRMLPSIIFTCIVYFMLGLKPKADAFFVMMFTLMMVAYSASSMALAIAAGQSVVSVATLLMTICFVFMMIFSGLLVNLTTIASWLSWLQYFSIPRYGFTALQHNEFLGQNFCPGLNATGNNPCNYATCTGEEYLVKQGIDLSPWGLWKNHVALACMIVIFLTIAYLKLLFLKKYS
UniProt P11712, whole entry, looked up: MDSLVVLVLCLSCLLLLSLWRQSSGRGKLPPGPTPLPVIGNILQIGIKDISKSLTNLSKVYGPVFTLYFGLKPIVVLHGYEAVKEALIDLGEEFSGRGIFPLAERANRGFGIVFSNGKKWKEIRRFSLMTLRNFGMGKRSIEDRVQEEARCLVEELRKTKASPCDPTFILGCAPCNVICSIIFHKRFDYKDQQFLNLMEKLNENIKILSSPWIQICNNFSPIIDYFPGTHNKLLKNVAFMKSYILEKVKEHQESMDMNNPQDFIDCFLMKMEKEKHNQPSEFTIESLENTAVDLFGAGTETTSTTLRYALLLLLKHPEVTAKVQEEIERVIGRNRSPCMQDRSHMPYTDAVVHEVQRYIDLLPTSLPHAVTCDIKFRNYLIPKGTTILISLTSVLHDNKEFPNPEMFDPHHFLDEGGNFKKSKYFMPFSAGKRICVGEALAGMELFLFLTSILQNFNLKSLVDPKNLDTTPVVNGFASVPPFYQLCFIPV
UniProt P20813: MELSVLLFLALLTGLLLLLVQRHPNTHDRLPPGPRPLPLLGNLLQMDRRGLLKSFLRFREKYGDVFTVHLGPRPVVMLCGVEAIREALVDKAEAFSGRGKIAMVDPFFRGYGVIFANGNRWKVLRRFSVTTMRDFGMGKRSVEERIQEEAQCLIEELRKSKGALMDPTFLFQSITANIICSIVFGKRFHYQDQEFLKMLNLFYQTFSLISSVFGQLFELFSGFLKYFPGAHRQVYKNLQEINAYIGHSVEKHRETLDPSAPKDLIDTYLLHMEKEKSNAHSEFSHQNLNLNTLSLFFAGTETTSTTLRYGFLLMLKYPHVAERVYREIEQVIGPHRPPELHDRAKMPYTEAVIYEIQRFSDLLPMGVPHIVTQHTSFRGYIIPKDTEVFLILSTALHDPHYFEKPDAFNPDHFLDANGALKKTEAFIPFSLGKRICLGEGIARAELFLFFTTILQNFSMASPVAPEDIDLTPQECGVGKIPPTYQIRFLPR
UniProt P33261, whole entry, looked up: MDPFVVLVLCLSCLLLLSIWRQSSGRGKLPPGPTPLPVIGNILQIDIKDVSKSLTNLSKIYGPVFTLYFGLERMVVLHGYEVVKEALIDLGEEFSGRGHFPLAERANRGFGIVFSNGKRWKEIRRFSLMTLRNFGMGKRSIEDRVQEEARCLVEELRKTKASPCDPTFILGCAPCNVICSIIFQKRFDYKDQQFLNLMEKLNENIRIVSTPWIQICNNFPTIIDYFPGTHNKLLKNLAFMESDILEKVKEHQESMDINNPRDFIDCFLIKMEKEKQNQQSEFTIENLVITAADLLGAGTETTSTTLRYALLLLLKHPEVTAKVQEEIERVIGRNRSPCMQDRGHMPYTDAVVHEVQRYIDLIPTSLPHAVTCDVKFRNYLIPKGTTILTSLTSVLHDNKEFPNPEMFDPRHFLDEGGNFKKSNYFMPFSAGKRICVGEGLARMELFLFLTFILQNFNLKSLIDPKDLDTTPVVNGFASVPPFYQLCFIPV
UniProt P04406: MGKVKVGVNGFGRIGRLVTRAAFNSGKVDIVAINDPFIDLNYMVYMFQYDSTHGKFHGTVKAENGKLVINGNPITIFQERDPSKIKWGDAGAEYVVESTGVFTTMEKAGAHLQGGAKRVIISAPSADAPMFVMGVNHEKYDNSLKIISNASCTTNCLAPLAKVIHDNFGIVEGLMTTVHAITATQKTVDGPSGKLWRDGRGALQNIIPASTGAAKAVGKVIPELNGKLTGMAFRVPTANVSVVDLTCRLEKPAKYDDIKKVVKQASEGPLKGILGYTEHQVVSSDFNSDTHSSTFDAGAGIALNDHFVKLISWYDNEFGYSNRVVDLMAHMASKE
UniProt P08684, whole entry, looked up: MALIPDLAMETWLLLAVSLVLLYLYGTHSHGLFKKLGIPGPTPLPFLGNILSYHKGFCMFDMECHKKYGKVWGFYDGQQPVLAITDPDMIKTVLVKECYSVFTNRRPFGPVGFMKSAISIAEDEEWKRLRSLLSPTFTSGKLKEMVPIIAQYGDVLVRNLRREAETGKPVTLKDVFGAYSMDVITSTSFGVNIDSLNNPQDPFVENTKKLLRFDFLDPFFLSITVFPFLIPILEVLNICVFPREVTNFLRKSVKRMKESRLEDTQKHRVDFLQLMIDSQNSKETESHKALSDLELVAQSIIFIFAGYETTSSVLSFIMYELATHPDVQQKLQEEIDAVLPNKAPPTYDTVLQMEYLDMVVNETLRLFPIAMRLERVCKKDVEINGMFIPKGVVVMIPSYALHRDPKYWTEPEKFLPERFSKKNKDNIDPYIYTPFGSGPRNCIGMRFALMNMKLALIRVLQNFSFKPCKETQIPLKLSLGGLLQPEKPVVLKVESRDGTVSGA

How the values were obtained:
[1] = read-out: Broad substrate specificity ATP-binding cassette transporter ABCG2 (Homo sapiens) (UniProt Q9UNQ0); experiment: CLD_ABCG2_24hr: CellzDirect (CLD) Gene Expression Assay for ABC Transporter (ABCG2) at 24 hours (AID 2283685);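 on AC50: AC50 is for induction meaning signal gain over DMSO vehicle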
In short: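 Primary human hepatocytes were dosed daily with ToxCast chemicals at multiple concentrations (vehicle 0.2% DMSO). ABCG2 mRNA was measured at 24 h by qNPA chemiluminescence; induction was scored as gain of signal versus DMSO.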

[2] = read-out: Cytochrome P450 2C9 (Homo sapiens) (UniProt P11712); experiment: CLD_CYP2C9_24hr: CellzDirect (CLD) Gene Expression Assay for xenobiotic metabolism (CYP2C9) at 24 hours (AID 2283688);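 on AC50: potency for induction meaning a rise in CYP2C9 mRNA over DMSO vehicle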
In short: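 Primary human hepatocytes from two donor preparations, dosed daily for two days at multiple concentrations; vehicle 0.2% DMSO. CYP2C9 mRNA induction at 24 h measured by qNPA chemiluminescence relative to DMSO; cytotoxicity annotated from morphology.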

[3] = read-out: HMG-CoA synthase (HMGCS2), HMGCS2 (gene 3158); experiment: CLD_HMGCS2_24hr: CellzDirect (CLD) Gene Expression Assay for HMG-CoA synthase (HMGCS2) at 24 hours (AID 2283691)
In short: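 Primary human hepatocytes from two donor preparations, dosed daily with fresh solutions; vehicle 0.2% DMSO, 24 h harvest. HMGCS2 mRNA quantified by qNPA with S1 nuclease digestion and chemiluminescence; gain fitted versus DMSO, cytotoxicity annotated by morphology.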

[4] = read-out: alkyl and aryl transferase (GSTA2), GSTA2 (gene 2939); experiment: CLD_GSTA2_24hr: CellzDirect (CLD) Gene Expression Assay for alkyl and aryl transferase (GSTA2) at 24 hours (AID 2283693)
In short: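 Primary human hepatocytes (two donor preparations) dosed daily for two days with chemicals at multiple concentrations (vehicle 0.2% DMSO); GSTA2 mRNA at 24 h measured by qNPA chemiluminescence, gain-of-signal versus DMSO.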

[5] = read-out: ABC Transporter (ABCB1), ABCB1 (gene 5243); experiment: CLD_ABCB1_48hr: CellzDirect (CLD) Gene Expression Assay for ABC Transporter (ABCB1) at 48 hours (AID 2283695);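 on AC50: potency for induction meaning increase of mRNA over DMSO vehicle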
In short: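 Primary human hepatocytes from two donor preparations dosed daily on two consecutive days with 0.2% DMSO vehicle. Harvest at 48 h. ABCB1 mRNA quantified by qNPA with chemiluminescence and fitted for gain of signal versus DMSO.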

[6] = read-out: ABC Transporter (ABCB11), ABCB11 (gene 8647); experiment: CLD_ABCB11_48hr: CellzDirect (CLD) Gene Expression Assay for ABC Transporter (ABCB11) at 48 hours (AID 2283697)
In short: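 Primary human hepatocytes from two donor preparations dosed daily for two days at multiple concentrations; 0.2% DMSO vehicle. ABCB11 mRNA at 48 h by quantitative nuclease protection assay, chemiluminescence; fitted for induction versus DMSO.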

[7] = read-out: Cytochrome P450 2B6 (Homo sapiens) (UniProt P20813); experiment: CLD_CYP2B6_48hr: CellzDirect (CLD) Gene Expression Assay for xenobiotic metabolism (CYP2B6) at 48 hours (AID 2283699);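 further: actives raise transcript level above DMSO so potency reflects induction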
In short: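 Primary human hepatocytes dosed daily for two days over multiple concentrations, 0.2% DMSO vehicle; CYP2B6 mRNA quantified at 48 h by qNPA chemiluminescence. Induction fitted as gain of signal versus DMSO; cytotoxicity annotated by morphology.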

[8] = read-out: Cytochrome P450 2C19 (Homo sapiens) (UniProt P33261); experiment: CLD_CYP2C19_48hr: CellzDirect (CLD) Gene Expression Assay for xenobiotic metabolism (CYP2C19) at 48 hours (AID 2283700)
In short: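 Primary human hepatocytes (two donor preparations) dosed daily for two days, harvested at 48 h; CYP2C19 mRNA induction measured by qNPA chemiluminescence. Gain-of-signal fitted relative to 0.2% DMSO vehicle as baseline.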

[9] = CLD_ACTIN_48hr: CellzDirect (CLD) Gene Expression Assay for Baseline Control (Actin) at 48 hours (AID 2283702)
In short: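 Primary human hepatocytes (two donor preparations) dosed daily for two days with ToxCast chemicals at multiple concentrations versus 0.2% DMSO vehicle; harvested at 48 h. Actin mRNA measured as a background control by quantitative nuclease protection assay with chemiluminescence.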

[10] = read-out: Glyceraldehyde-3-phosphate dehydrogenase (Homo sapiens) (UniProt P04406); experiment: CLD_GAPDH_48hr: CellzDirect (CLD) Gene Expression Assay for Baseline Control (Glyceraldehyde 3-phosphate dehydrogenase) at 48 hours (AID 2283706)
In short: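 Primary human hepatocytes dosed daily for two days with fresh chemical at multiple concentrations, 0.2% DMSO vehicle; GAPDH mRNA measured at 48 h by quantitative nuclease protection assay with chemiluminescence, fitted upward relative to DMSO as background control.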

[11] = read-out: organic anion transporter (SLCO1B1), SLCO1B1 (gene 10599); experiment: CLD_SLCO1B1_48hr: CellzDirect (CLD) Gene Expression Assay for organic anion transporter (SLCO1B1) at 48 hours (AID 2283707)
In short: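 Primary human hepatocytes from two donor preparations dosed daily for two days with multiple concentrations, 0.2% DMSO vehicle. SLCO1B1 mRNA at 48 h by quantitative nuclease protection assay, chemiluminescence; gain-of-signal fitted versus DMSO.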

[12] = read-out: alkyl and aryl transferase (GSTA2), GSTA2 (gene 2939); experiment: CLD_GSTA2_48hr: CellzDirect (CLD) Gene Expression Assay for alkyl and aryl transferase (GSTA2) at 48 hours (AID 2283708);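 further: active means mRNA induction above DMSO vehicle baseline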
In short: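 Primary human hepatocytes dosed daily for two days (0.2% DMSO vehicle), harvested at 48 h. GSTA2 mRNA induction measured by quantitative nuclease protection assay with chemiluminescent imaging, fitted for gain of signal relative to DMSO.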

[13] = read-out: Cytochrome P450 3A4 (Homo sapiens) (UniProt P08684); experiment: CLD_CYP3A4_24hr: CellzDirect (CLD) Gene Expression Assay for xenobiotic metabolism (CYP3A4) at 24 hours (AID 2283689)
In short: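 Primary human hepatocytes from two donors dosed daily with fresh compound for two days, 0.2% DMSO vehicle. CYP3A4 mRNA at 24 hr by qNPA chemiluminescence; gain-of-signal fit versus DMSO, cytotoxicity flagged by morphology.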

[14] = read-out: organic anion transporter (SLCO1B1), SLCO1B1 (gene 10599); experiment: CLD_SLCO1B1_24hr: CellzDirect (CLD) Gene Expression Assay for organic anion transporter (SLCO1B1) at 24 hours (AID 2283690)
In short: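 Primary human hepatocytes (two donor preparations) dosed daily for two days with chemicals at multiple concentrations, 0.2% DMSO vehicle. SLCO1B1 mRNA at 24 h measured by qNPA chemiluminescence; induction fitted relative to DMSO.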

[15] = read-out: Glyceraldehyde-3-phosphate dehydrogenase (Homo sapiens) (UniProt P04406); experiment: CLD_GAPDH_24hr: CellzDirect (CLD) Gene Expression Assay for Baseline Control (Glyceraldehyde 3-phosphate dehydrogenase) at 24 hours (AID 2283692)
In short: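 Primary human hepatocytes (two donor preparations) dosed daily for two days, 0.2% DMSO vehicle; GAPDH mRNA measured at 24 h by qNPA chemiluminescence as a background control, gain-of-signal fitted against DMSO.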

[16] = read-out: sulfotransferase (SULT2A), SULT2A1 (gene 6822); experiment: CLD_SULT2A_24hr: CellzDirect (CLD) Gene Expression Assay for sulfotransferase (SULT2A) at 24 hours (AID 2283694);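 further: potency for increased SULT2A1 mRNA level as induction over DMSO baseline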
In short: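 Primary human hepatocytes from two donor preparations were dosed daily with fresh solutions, vehicle 0.2% DMSO. At 24 h, lysates went to quantitative nuclease protection (qNPA) with S1 digestion and chemiluminescent readout. Cytotoxicity was annotated from phase-contrast morphology.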

[17] = read-out: Broad substrate specificity ATP-binding cassette transporter ABCG2 (Homo sapiens) (UniProt Q9UNQ0); experiment: CLD_ABCG2_48hr: CellzDirect (CLD) Gene Expression Assay for ABC Transporter (ABCG2) at 48 hours (AID 2283704);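 further: potency for induction of ABCG2 mRNA above the DMSO baseline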
In short: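 Primary human hepatocytes from two donors, dosed daily for 2 days, 0.2% DMSO vehicle, several concentrations. ABCG2 mRNA at 48 h by qNPA chemiluminescence, gain fitted versus DMSO; cytotoxicity flagged by morphology.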

[18] = read-out: xenobiotic metabolism (CYP1A1), CYP1A1 (gene 1543); experiment: CLD_CYP1A1_48hr: CellzDirect (CLD) Gene Expression Assay for xenobiotic metabolism (CYP1A1) at 48 hours (AID 2283705)
In short: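 Primary human hepatocytes from two donors dosed daily for two days at multiple concentrations, 0.2% DMSO vehicle; CYP1A1 mRNA induction at 48 h by qNPA chemiluminescence. Cytotoxicity noted by phase-contrast morphology.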

Measured: AC50

CON(C)C(=O)Nc1ccc(Cl)c(Cl)c1
active: [7] 1.31 µM
inconclusive: [1] 7.36 µM | [2] 5.79 µM | [3] 12 µM | [4] 4.15 µM | [5] 10.5 µM | [6] 4.29 µM | [8] 12.6 µM | [9] 20 µM | [10] 4.99 µM | [11] 11.6 µM | [12] 20 µM

CC1(c2ccc(Oc3ccccc3)cc2)OC(=O)N(Nc2ccccc2)C1=O (centres undefined)
inactive: [13] | [14] | [9] | [10]
inconclusive: [1] 0.0004 µM | [2] 1.9 µM | [3] 37.7 µM | [15] 20 µM | [16] 0.000156 µM | [6] 20 µM | [7] 37.3 µM | [8] 32.1 µM | [11] 20 µM

C=C(C)CN(CC)c1c([N+](=O)[O-])cc(C(F)(F)F)cc1[N+](=O)[O-]
inactive: [1] | [15] | [6] | [7] | [8] | [10] | [11]
inconclusive: [14] 0.000885 µM | [3] 0.0004 µM
active: [13] 5.33 µM

CCN(CC)C(=O)C(C)Oc1cccc2ccccc12 (centres undefined)
inactive: [13] | [11] | [12]
inconclusive: [1] 0.0004 µM | [14] 20 µM | [3] 5.16 µM | [4] 20 µM | [6] 20 µM | [9] 20 µM | [17] 0.000503 µM | [10] 9.85 µM
active: [18] 27.9 µM

CCOc1nc(NC)nc(NC(=O)NS(=O)(=O)c2ccccc2C(=O)OC)n1
active: [18] 20 µM
inconclusive: [3] 0.277 µM | [4] 20 µM | [8] 20 µM | [9] 20 µM
inactive: [1] | [2] | [15] | [5] | [11] | [12]

CCNc1nc(Cl)nc(NCC)n1
active: [18] 3.92 µM
inactive: [14] | [4] | [10]
inconclusive: [1] 0.0786 µM | [3] 7.54 µM | [15] 20 µM | [5] 9.28 µM | [6] 20 µM | [9] 20 µM | [12] 20 µM
